According to PubChem BioAssay AID504467 (National Center for Advancing Translational Sciences (NCATS), 2011):
Out of some 330,000 compounds screened, about 7,700 (2.3%) were called active. The inconclusive results got no clear call from the source; some entries with a clear call stand among them for comparison. Calls come from the whole dose curve; as a rule, active = well fitted inhibition curve with a large enough effect; inconclusive = small, poorly fitted or top-dose-only effect, or effect the other way; inactive = flat fitted curve, though single readings scatter. Potencies beside an inconclusive call are fits to weak or partial responses and may not hold up.

Assay: qHTS screen for small molecules that inhibit ELG1-dependent DNA repair in human embryonic kidney (HEK293T) cells expressing luciferase-tagged ELG1; note: nearly all actives have a fitted effect of over 55% in size
Conditions: HEK293T ELG1-luciferase reporter, luminescence, 16 h, DNA damage induced by 5-fluorouridine; series mostly up to 46.1 µM
Outline: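 Overnight (16 hr) co-exposure of 2,000 cells/well to 5-fluorouridine and compound at 37 °C preceded detection. Luciferase was quantified via ONE-Glo luminescence; loss of signal denotes inhibition.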
Potency is the fitted concentration of half-maximal effect.

| SMILES | Potency |
| --- | --- |
| O=C1CCc2cc(S(=O)(=O)Nc3ccccc3)cc3c2N1CCC3 | inactive |
| COC(=O)c1sccc1S(=O)(=O)Nc1ccc(S(N)(=O)=O)cc1 | inactive |
| COc1cc(CN2CCN(C(c3ccccc3)c3ccccc3)CC2)cc(OC)c1OC | inconclusive: 3.66 µM [inhibitor, partial curve, poor fit] |
| Clc1cccc(C2CCN(Cc3nc(CC4CC4)no3)C2)c1 (centres undefined) | inconclusive: 10.3 µM [activator, partial curve, poor fit] |
| COc1ccc(S(=O)(=O)/N=C2\C=C(NS(=O)(=O)c3ccccc3)C(=O)c3ccccc32)cc1 | active: 23.1 µM |
| Cn1cccc1-c1nc2ccccc2[nH]1 | inconclusive: 14.6 µM [activator, partial curve] |
| O=C(NCCN1CCOCC1)c1cnn2c(-c3ccccc3)cc(-c3ccccc3)nc12 | inconclusive: 23.1 µM [inhibitor, partial curve, poor fit] |
| O=C(COc1ccc(S(=O)(=O)NC2CCCCC2)cc1)NCC1CCCO1 (centres undefined) | inactive |
| COc1ccc(CNC(=O)C(C)OC(=O)CN2C(=O)COc3ccccc32)cc1 (centres undefined) | inactive |
| CC1Cc2cc(/C(O)=C3/C(=O)C(=O)N(CCN4CCOCC4)C3c3cccc(Cl)c3)ccc2O1 (centres undefined) | inconclusive: 13 µM [activator, partial curve, poor fit] |
| Nc1nc(Nc2cccc(F)c2)nc2ccccc12 | inconclusive: 10 µM [activator, partial curve, poor fit] |
| COc1ccc(Br)cc1CN(C)CC(=O)NCc1ccc(F)cc1 | inconclusive: 25.9 µM [inhibitor, partial curve, poor fit] |
| CN(C(=O)COC(=O)c1ccc(=O)n(Cc2ccccc2)n1)c1ccccc1 | inactive |
| CC(C)Cn1c(SCC(=O)N2CCCc3ccccc32)nc2ccccc2c1=O | inconclusive: 29.1 µM [inhibitor, single point] |
| COc1ccc2[nH]c3c(c2c1)CCN1C(=O)C(CC(=O)NCc2ccco2)C[C@H](C(=O)N2CCOCC2)[C@@]31CCC1CCCC1 (some centres undefined) | inactive |
| Cc1[nH]c(=O)c(C(=O)/C=C/c2ccccc2F)c2c1CCCC2 | active: 14.6 µM |
| O=C(Cc1ncc(C(F)(F)F)cc1Cl)NC1CC1 | inconclusive: 0.0164 µM [activator, full curve, poor fit] |
| Cc1cc(S(=O)(=O)N2CCOCC2)c(C)s1 | inactive |
| Cc1ccc(CNC(=O)C2CC(c3cccc(F)c3)=NO2)cc1 (centres undefined) | inconclusive: 2.59 µM [activator, partial curve, poor fit] |
| O=C(NCc1ccc2c(c1)OCO2)c1cc(F)c(F)cc1Cl | inconclusive: 20.6 µM [activator, single point] |
| COc1ccc(OC)c(-c2cc(C(=O)NCc3cccs3)no2)c1 | inconclusive: 20.6 µM [inhibitor, single point] |
| CC(C)C(NC(=O)c1c(F)cccc1F)C(=O)NNC(=O)c1ccccc1 (centres undefined) | inactive |
| COCC(C)n1c(C)cc(C(=O)CSc2nnc(N)s2)c1C (centres undefined) | inconclusive: 14.6 µM [activator, partial curve] |
| COc1ccc(/C=c2\s/c(=C/C(=O)c3ccc(C)cc3)[nH]c2=O)cc1OC | inconclusive: 25.9 µM [inhibitor, partial curve] |
| CCN1C(=S)N[C@@H](CCc2ccccc2)C(C(=O)OC)=C1C | inactive |

| SMILES | Potency |
| --- | --- |
| Cn1c(NCc2c(O)ccc3ccccc23)nc2ccccc21 | inconclusive: 20.6 µM [inhibitor, partial curve, poor fit] |
| COc1cccc(NC(=O)CSc2nc3ccccc3c(=O)n2C)c1 | active: 9.2 µM |
| CC1(C)Cc2ccccc2-c2nnc(SCC(=O)Nc3nc4ccccc4s3)n21 | inconclusive: 23.1 µM [inhibitor, partial curve, poor fit] |
| Cc1nn(CC(=O)NCCCN2CCCC2=O)c(C)c1[N+](=O)[O-] | inactive |
| CC(=O)Nc1ccc(C(=O)NNC(=O)c2ccc(Cl)cc2)cc1 | inactive |
| Cc1ccccc1N=Cc1cccc(O)c1O | inactive |
| COc1cccc2c1oc1c(SCc3nc4ccccc4[nH]3)nc(C)nc12 | inconclusive: 9.2 µM [inhibitor, partial curve, poor fit] |
| c1ccc(-c2noc(-c3ccno3)n2)nc1 | inconclusive: 20.6 µM [activator, partial curve, poor fit] |
| COc1ccc(NC2CC(=O)N(CCc3ccccc3)C2=O)cc1 (centres undefined) | inactive |
| O=C(O)c1cccc(NCc2cccnc2)c1 | inconclusive: 20.6 µM [activator, single point] |
| O=C(O)CN1C(=O)C2C3C=CC(C3)C2C1=O (centres undefined) | inconclusive: 25.9 µM [activator, single point] |
| COc1ccc(OC)c(CN2CCN(CCc3ccccc3)C(CCO)C2)c1 (centres undefined) | inactive |
| CN(C)C/C(Cl)=C(\Cl)c1ccccc1 | inactive |
| c1cc(CSc2nnc(-c3ccc4c(c3)OCO4)o2)ccn1 | inconclusive: 18.4 µM [activator, partial curve] |
| CC(=O)c1ccccc1NC(=O)CSc1nc2ccccc2c(=O)n1CCCN1CCOCC1 | inconclusive: 13 µM [inhibitor, partial curve, poor fit] |
| N/C(=N\OC(=O)c1ccc([N+](=O)[O-])cc1)c1ccc(Br)cc1 | inconclusive: 15.8 µM [activator, single point] |
| Cc1ccoc1C(=O)N1CCCC(CCC(=O)N2CCN(c3ccccn3)CC2)C1 (centres undefined) | active: 20.6 µM |
| CCN(C)c1ccc(/C=N\n2nnnc2N)cc1 | inconclusive: 17.8 µM [activator, partial curve, poor fit] |
| Cc1ccc(NC(=O)Cc2cc(C(=O)O)c3ccccc3n2)c(C)c1 | inconclusive: 29.1 µM [inhibitor, single point] |
| Cc1c(NC(=O)/C(C#N)=C/c2ccc(-c3ccccc3Cl)o2)c(=O)n(-c2ccccc2)n1C | inconclusive: 29.1 µM [inhibitor, single point] |
| O=C(Oc1cccnc1)c1ccc([N+](=O)[O-])cc1Cl | inactive |
| CCOc1ccc(C(=O)Nc2ccc(C(=O)N3CCOCC3)cc2)c(OCC)c1 | inactive |
| O=C(O)CCn1c(C2CCCCC2)nc2ccccc21 | inactive |
| CNS(=O)(=O)c1cccc(C(=O)OCC(=O)c2cc(C)n(-c3ccc4c(c3)OCO4)c2C)c1 | inactive |
| CCOC(=O)C1CCN(Cc2ccccn2)CC1 | inactive |

Some of these compounds in order of SMILES length, ascending:

| SMILES | Potency |
| --- | --- |
| Cn1cccc1-c1nc2ccccc2[nH]1 | inconclusive: 14.6 µM [activator, partial curve] |
| O=C(O)c1cccc(NCc2cccnc2)c1 | inconclusive: 20.6 µM [activator, single point] |
| c1ccc(-c2noc(-c3ccno3)n2)nc1 | inconclusive: 20.6 µM [activator, partial curve, poor fit] |
| O=C(O)CCn1c(C2CCCCC2)nc2ccccc21 | inactive |
| O=C1CCc2cc(S(=O)(=O)Nc3ccccc3)cc3c2N1CCC3 | inactive |
| N/C(=N\OC(=O)c1ccc([N+](=O)[O-])cc1)c1ccc(Br)cc1 | inconclusive: 15.8 µM [activator, single point] |

(listing goes on)

| SMILES | Potency |
| --- | --- |
| CCC(C)(C)NC(=O)C(c1ccccn1)N(C(=O)c1csnn1)c1ccc(C)c(C)c1 (centres undefined) | inactive |
| CCOC(=O)C1Cc2c([nH]c3ccccc23)CN1 (centres undefined) | inconclusive: 23.1 µM [activator, partial curve, poor fit] |
| COCCn1c(-c2ccc(Br)cc2)csc1=Nc1cccnc1 | active: 11.6 µM |
| Cc1ccc(-c2cnc(-c3ccccc3C(=O)O)o2)cc1 | inconclusive: 23.1 µM [activator, partial curve] |
| CCOC(=O)c1sc2nc(C)nc(NCc3cccnc3)c2c1C | active: 14.6 µM |
| COc1cc(OC)cc(-c2sc3ccc(OC)cc3c2C#CCCO)c1 | inconclusive: 14.6 µM [inhibitor, single point] |
| CC(C)(C)C1CCc2c(sc(NC(=O)c3cccs3)c2C(N)=O)C1 (centres undefined) | inconclusive: 8.2 µM [activator, partial curve] |
| CN(C(=O)CSc1nc2cc(Cl)ccc2c(=O)n1Cc1ccco1)C1CCS(=O)(=O)C1 (centres undefined) | inconclusive: 0.0046 µM [activator, full curve, poor fit] |
| CCCCn1c(N)c(N(CC(C)C)C(=O)CCCc2cccs2)c(=O)[nH]c1=O | inactive |
| CC(=O)Nc1ccc(NC(=O)C(C)OC(=O)c2ccc(OCc3c(C)noc3C)cc2)cc1 (centres undefined) | inconclusive: 9.2 µM [inhibitor, partial curve, poor fit] |
| Cc1c(CC(=O)NCC(=O)O)c(=O)oc2cc3oc4c(c3cc12)CCCC4 | inactive |
| Cc1c(NC(=O)/C=C/c2cn(-c3ccccc3)nc2-c2ccccc2)c(=O)n(-c2ccccc2)n1C | inconclusive: 7.31 µM [inhibitor, single point] |
| CCOC(=O)C1=C(C)NC(C)=C(C(=O)OCC)C1C(=O)OCC(=O)NC | inactive |
| O=C(CNC(=O)/C=C/c1ccccc1)N=Nc1c(O)n(Cc2ccccc2)c2ccccc12 | inactive |
| O=C(CSc1nnc(COc2ccccc2Cl)o1)Nc1ccccc1 | inactive |
| CCCCN(CC)CCCNC(=O)c1cc2cc3ccc(OC)cc3nc2o1 | inactive |
| COc1ccc(CN(C)C(=O)Cn2cnc3c(SC)nc(N)nc32)cc1OC | inconclusive: 11.6 µM [inhibitor, partial curve] |
| CCCn1c2ccc(C)cc2c2nnc(SCCN3CCOCC3)nc21 | inconclusive: 18.3 µM [inhibitor, single point] |
| CC(=O)N1CCN(Cc2nc3cc(NC(=O)Nc4ccccc4)ccc3n2C)CC1 | inconclusive: 20.6 µM [activator, partial curve, poor fit] |
| Cc1ccc(Cl)c(Nc2ccccc2C(=O)O)c1Cl | inactive |
| Cc1ccc(OCCC(=O)N(CC(=O)Nc2ccccc2C(F)(F)F)Cc2ccco2)cc1 | inconclusive: 0.73 µM [inhibitor, single point] |
| COc1cc(OC)cc(C(=O)NNC(=O)c2ccccn2)c1 | inconclusive: 29.1 µM [activator, single point] |
| COC(=O)c1sc2nc3c(cc2c1N)CCCC3 | inconclusive: 4.11 µM [activator, partial curve] |
| Cc1ccccc1NC(=O)C1Cc2ccccc2C(=O)O1 (centres undefined) | inconclusive: 20.6 µM [activator, single point] |
